Only a part is listed here, and it is no random draw. At the low end of the ranking, values are background and their order means little.

By UniProt entry, the sequences of proteins in these tests, tags left out. Where a name states a change or a piece, a line headed by the entry shows the natural chain unless it says otherwise.
UniProt Q01892: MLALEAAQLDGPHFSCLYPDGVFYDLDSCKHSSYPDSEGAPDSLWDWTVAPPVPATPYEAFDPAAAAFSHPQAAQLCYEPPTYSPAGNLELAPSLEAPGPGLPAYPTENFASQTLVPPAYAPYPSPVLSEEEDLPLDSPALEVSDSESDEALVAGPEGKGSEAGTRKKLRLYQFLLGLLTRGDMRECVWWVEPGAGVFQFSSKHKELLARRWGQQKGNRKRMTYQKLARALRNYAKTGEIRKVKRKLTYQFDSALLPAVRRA

The text below walks through data of paper PMC7862700.

The first experiment has as its target T1, FLI1 (UniProt Q01543).
T1 sequence: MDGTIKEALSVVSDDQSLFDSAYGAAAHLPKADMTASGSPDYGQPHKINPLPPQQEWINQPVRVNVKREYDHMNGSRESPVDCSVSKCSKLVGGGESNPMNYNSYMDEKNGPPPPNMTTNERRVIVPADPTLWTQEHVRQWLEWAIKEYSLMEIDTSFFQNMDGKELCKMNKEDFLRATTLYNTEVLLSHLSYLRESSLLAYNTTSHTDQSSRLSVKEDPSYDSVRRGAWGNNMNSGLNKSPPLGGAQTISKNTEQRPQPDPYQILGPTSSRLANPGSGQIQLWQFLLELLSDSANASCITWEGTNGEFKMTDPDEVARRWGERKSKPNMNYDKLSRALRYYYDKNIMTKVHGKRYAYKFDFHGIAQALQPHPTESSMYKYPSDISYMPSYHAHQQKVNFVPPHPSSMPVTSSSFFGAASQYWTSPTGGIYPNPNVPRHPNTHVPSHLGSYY
Description: DAPPL (digital affinity profiling via proximity ligation, sequencing). Conditions: 10 mM Tris-HCl pH 7.5, 50 mM NaCl, 1 mM DTT, 4% glycerol, room temperature, 30 min; GST-TFs on glutathione beads, 16-mer random dsDNA library, 0.1% …; high values mean tight binding; double strand, one strand shown; scale: fold enrichment (6-mer frequency, TF over GST control).
Take CCCTCT: the binding signal amounted to 1.31.
Take TAACGT: the binding signal was 0.991.
Sequence ACCGCC returned a binding signal of 1.38.
Same read-out and setting: the same measure for AACCGA: 0.982; for AACAGA: 0.974; for CTCCAC: 1.56.
Same read-out and setting: under CCACAA stands 1.2; under TTCTGT, 1.26; under GAATGA, 0.941.
On the same count and under the same terms, under TTTGAT stands 1.37; under TGGATC, 0.957.
As for GAAGCC, the binding signal is 0.974.
On the same count and under the same terms, under TCCGCA stands 2.2; under CACAAG, 1.2; under TGTCCT, 1.37.
Take CCAGAA: the binding signal amounted to 0.881.
In the case of CCTAGG, the binding signal is 0.93.
On the same count and under the same terms, the same measure for TACGGT: 1.01; for ACACTA: 1.11.
The sequence ACTCGG gave a binding signal of 1.07.
On the same count and under the same terms, the same measure for CGTACG: 1; for TTAGCC: 0.972; for GATAAA: 0.967.
On the same count and under the same terms, under AGTTAA stands 1.02; under TGCCAC, 1.21; under CGCACC, 0.988.
On the same count and under the same terms, the same measure for ATTATC: 1.35; for AAAGGC: 0.946.
CCCTCA displayed a binding signal of 1.28.
Still for that read-out and setting: the same measure for TCGCGG: 0.997.
Turning to GTTAGC, the binding signal worked out at 0.933.
The same measure, in the same setting: the same measure for TATAAA: 1.17.
Same read-out and setting: the same measure for TTGGGC: 1.03; for CTAACT: 1.36; for CTCGTC: 1.49.
Still for that read-out and setting: under ACCTGT stands 0.964; under GATTCG, 0.99; under AACCCT, 1.31.
GTAACC had a binding signal of 1.04.
Still for that read-out and setting: under TATCCC stands 1.63.

The next experiment deals with T2, EHF (UniProt Q9NZC4).
T2 sequence: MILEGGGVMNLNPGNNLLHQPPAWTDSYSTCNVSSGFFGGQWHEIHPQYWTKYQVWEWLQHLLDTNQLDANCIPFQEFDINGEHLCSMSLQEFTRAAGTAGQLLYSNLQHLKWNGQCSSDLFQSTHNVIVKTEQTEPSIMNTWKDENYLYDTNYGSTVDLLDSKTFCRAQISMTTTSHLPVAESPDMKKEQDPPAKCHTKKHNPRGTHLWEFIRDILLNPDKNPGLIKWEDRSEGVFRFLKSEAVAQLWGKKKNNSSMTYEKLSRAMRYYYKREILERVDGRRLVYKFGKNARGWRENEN
The experiment is described as above. The following applies: 10 mM Tris-HCl pH 7.5, 50 mM NaCl, 1 mM DTT, 4% glycerol, room temperature, 30 min; GST-TFs on glutathione beads, 16-mer random dsDNA library, 0.1% …; high values mean tight binding; double strand, one strand shown; scale: fold enrichment (6-mer frequency, TF over GST control).
In turn, ACCGCC had a binding signal of 1.36.
Same read-out and setting: the same measure for AACCGA: 0.954; for CCACAA: 1.08; for GAATGA: 0.99.
As to TTTGAT, the binding signal is 1.25.
In turn, GAAGCC showed a binding signal of 0.974.
Same read-out and setting: under CACAAG stands 1.14; under TGTCCT, 1.52.
The same measure, in the same setting: under CCAGAA stands 0.977; under CCTAGG, 0.956.
Same read-out and setting: under TACGGT stands 0.975.
ACACTA returned a binding signal of 1.15.
Take CGTACG: the binding signal worked out at 0.959.
On the same count and under the same terms, the same measure for TTAGCC: 1.03.
Still for that read-out and setting: under GATAAA stands 0.924; under AGTTAA, 1.08; under TGCCAC, 1.23.
Same read-out and setting: under CGCACC stands 0.977; under ATTATC, 1.28; under AAAGGC, 0.983.
With TCGCGG, the binding signal worked out at 0.977.
Still for that read-out and setting: the same measure for GTTAGC: 0.953; for TTGGGC: 1.1; for CTAACT: 1.25.
Still for that read-out and setting: the same measure for ACCTGT: 0.957; for GATTCG: 0.962.
Same read-out and setting: under GTAACC stands 1.11.
As to TATCCC, the binding signal was 1.52.

The target of the next experiment is SPIB (UniProt Q01892). The description is as above. Conditions: 10 mM Tris-HCl pH 7.5, 50 mM NaCl, 1 mM DTT, 4% glycerol, room temperature, 30 min; GST-TFs on glutathione beads, 16-mer random dsDNA library, 0.1% …; high values mean tight binding; double strand, one strand shown; scale: fold enrichment (6-mer frequency, TF over GST control).
CCCTCT yielded a binding signal of 1.56.
TAACGT showed a binding signal of 0.966.
Same read-out and setting: under ACCGCC stands 1.13; under AACAGA, 0.907.
The same measure, in the same setting: the same measure for TTCTGT: 1.22; for GAATGA: 0.898.
With TGGATC, the binding signal was found to be 0.92.
The same measure, in the same setting: under GAAGCC stands 0.992.
The same measure, in the same setting: the same measure for CCAGAA: 0.95.
The same measure, in the same setting: under CCTAGG stands 0.976.
TACGGT showed a binding signal of 1.02.
On the same count and under the same terms, the same measure for ACTCGG: 0.956.
Regarding GATAAA, the binding signal is 1.04.
The same measure, in the same setting: under CGCACC stands 0.907.
Regarding ATTATC, the binding signal is 1.27.
Still for that read-out and setting: under AAAGGC stands 0.927.
The same measure, in the same setting: under CCCTCA stands 1.25.
Regarding TATAAA, the binding signal stood at 1.3.
Same read-out and setting: the same measure for TTGGGC: 1.1; for CTCGTC: 1.39.
On the same count and under the same terms, under ACCTGT stands 0.957; under GTAACC, 1.1.
